# According to paper PMC11768481, “Repurposing the Antidiabetic Drugs Glyburide, Gliquidone, and Glipizide in Combination with Benznidazole for Trypanosoma cruzi Infection” (Pharmaceuticals, 2024):
# Test system: T. cruzi Querétaro strain epimastigotes
# Test: Thiol metabolites (Cys, GSH, T(SH)2) in epimastigotes by HPLC
# Assay type: cell-based, Trypanosoma cruzi
# Conditions: 1 µM drug alone, 24 h
# Method: Since thiol metabolite determination requires high amounts of biological material, the thiol determination content was performed in epimastigotes of the Queretaro strain. A 0.2 L culture of LIT medium was inoculated with epimastigotes at a density of 0.7 × 10^6 parasites/mL. The culture was incubated for 72 h at 28 °C, reaching, at the exponential growth phase, a concentration of 3 × 10^6 parasites/mL. The culture was separated into 8 aliquots of 25 mL, and 1 µM BNZ was added alone or in combination with 1 µM of the antidiabetic drugs. The cultures were incubated for 24 h at 28 °C. Subsequently, 1 mL of each sample was separated for protein determination, and the rest was used for thiol determination. Both samples were centrifuged at 20,817× g for 10 min; the pellets were washed twice with PBS. The pellets for protein were resuspended in 100 µL of Lowry’s solution A (2% Na2CO3, 0.4% NaOH, 0.16% Na-K tartrate, 1% SDS) and stored at −70 °C until protein determination using the Lowry method. The parasite pellets for thiol metabolite determination were immediately lysed by incubation in liquid nitrogen and stored at −70 °C.
# Thiol determination was performed as described before. […] The thiol metabolites were post-column derivatized with 0.1 mM di-thio-bis nitrobenzoic acid (DTNB), and the absorbance was detected at 412 nm with a UV-Vis detector coupled to the HPLC apparatus.
smiles,measurement,value
"Cc1cnc(C(=O)NCCc2ccc(S(=O)(=O)NC(=O)NC3CCCCC3)cc2)cn1 [GPZ, glipizide]",GSH level,decreased
same,decrease in GSH,~50%
